The supplement of paper PMC11732987, “Enantioselective OTUD7B fragment discovery through chemoproteomics screening and high-throughput optimisation” (Communications Chemistry, 2025)
Some of the results follow. The data scatter; read single values as rough.

Amino acid sequences for entries named in this document (tags omitted). A change or cut given only in a name is not applied to a line headed by its entry. Residues count along the entry.
UniProt Q9NZJ4: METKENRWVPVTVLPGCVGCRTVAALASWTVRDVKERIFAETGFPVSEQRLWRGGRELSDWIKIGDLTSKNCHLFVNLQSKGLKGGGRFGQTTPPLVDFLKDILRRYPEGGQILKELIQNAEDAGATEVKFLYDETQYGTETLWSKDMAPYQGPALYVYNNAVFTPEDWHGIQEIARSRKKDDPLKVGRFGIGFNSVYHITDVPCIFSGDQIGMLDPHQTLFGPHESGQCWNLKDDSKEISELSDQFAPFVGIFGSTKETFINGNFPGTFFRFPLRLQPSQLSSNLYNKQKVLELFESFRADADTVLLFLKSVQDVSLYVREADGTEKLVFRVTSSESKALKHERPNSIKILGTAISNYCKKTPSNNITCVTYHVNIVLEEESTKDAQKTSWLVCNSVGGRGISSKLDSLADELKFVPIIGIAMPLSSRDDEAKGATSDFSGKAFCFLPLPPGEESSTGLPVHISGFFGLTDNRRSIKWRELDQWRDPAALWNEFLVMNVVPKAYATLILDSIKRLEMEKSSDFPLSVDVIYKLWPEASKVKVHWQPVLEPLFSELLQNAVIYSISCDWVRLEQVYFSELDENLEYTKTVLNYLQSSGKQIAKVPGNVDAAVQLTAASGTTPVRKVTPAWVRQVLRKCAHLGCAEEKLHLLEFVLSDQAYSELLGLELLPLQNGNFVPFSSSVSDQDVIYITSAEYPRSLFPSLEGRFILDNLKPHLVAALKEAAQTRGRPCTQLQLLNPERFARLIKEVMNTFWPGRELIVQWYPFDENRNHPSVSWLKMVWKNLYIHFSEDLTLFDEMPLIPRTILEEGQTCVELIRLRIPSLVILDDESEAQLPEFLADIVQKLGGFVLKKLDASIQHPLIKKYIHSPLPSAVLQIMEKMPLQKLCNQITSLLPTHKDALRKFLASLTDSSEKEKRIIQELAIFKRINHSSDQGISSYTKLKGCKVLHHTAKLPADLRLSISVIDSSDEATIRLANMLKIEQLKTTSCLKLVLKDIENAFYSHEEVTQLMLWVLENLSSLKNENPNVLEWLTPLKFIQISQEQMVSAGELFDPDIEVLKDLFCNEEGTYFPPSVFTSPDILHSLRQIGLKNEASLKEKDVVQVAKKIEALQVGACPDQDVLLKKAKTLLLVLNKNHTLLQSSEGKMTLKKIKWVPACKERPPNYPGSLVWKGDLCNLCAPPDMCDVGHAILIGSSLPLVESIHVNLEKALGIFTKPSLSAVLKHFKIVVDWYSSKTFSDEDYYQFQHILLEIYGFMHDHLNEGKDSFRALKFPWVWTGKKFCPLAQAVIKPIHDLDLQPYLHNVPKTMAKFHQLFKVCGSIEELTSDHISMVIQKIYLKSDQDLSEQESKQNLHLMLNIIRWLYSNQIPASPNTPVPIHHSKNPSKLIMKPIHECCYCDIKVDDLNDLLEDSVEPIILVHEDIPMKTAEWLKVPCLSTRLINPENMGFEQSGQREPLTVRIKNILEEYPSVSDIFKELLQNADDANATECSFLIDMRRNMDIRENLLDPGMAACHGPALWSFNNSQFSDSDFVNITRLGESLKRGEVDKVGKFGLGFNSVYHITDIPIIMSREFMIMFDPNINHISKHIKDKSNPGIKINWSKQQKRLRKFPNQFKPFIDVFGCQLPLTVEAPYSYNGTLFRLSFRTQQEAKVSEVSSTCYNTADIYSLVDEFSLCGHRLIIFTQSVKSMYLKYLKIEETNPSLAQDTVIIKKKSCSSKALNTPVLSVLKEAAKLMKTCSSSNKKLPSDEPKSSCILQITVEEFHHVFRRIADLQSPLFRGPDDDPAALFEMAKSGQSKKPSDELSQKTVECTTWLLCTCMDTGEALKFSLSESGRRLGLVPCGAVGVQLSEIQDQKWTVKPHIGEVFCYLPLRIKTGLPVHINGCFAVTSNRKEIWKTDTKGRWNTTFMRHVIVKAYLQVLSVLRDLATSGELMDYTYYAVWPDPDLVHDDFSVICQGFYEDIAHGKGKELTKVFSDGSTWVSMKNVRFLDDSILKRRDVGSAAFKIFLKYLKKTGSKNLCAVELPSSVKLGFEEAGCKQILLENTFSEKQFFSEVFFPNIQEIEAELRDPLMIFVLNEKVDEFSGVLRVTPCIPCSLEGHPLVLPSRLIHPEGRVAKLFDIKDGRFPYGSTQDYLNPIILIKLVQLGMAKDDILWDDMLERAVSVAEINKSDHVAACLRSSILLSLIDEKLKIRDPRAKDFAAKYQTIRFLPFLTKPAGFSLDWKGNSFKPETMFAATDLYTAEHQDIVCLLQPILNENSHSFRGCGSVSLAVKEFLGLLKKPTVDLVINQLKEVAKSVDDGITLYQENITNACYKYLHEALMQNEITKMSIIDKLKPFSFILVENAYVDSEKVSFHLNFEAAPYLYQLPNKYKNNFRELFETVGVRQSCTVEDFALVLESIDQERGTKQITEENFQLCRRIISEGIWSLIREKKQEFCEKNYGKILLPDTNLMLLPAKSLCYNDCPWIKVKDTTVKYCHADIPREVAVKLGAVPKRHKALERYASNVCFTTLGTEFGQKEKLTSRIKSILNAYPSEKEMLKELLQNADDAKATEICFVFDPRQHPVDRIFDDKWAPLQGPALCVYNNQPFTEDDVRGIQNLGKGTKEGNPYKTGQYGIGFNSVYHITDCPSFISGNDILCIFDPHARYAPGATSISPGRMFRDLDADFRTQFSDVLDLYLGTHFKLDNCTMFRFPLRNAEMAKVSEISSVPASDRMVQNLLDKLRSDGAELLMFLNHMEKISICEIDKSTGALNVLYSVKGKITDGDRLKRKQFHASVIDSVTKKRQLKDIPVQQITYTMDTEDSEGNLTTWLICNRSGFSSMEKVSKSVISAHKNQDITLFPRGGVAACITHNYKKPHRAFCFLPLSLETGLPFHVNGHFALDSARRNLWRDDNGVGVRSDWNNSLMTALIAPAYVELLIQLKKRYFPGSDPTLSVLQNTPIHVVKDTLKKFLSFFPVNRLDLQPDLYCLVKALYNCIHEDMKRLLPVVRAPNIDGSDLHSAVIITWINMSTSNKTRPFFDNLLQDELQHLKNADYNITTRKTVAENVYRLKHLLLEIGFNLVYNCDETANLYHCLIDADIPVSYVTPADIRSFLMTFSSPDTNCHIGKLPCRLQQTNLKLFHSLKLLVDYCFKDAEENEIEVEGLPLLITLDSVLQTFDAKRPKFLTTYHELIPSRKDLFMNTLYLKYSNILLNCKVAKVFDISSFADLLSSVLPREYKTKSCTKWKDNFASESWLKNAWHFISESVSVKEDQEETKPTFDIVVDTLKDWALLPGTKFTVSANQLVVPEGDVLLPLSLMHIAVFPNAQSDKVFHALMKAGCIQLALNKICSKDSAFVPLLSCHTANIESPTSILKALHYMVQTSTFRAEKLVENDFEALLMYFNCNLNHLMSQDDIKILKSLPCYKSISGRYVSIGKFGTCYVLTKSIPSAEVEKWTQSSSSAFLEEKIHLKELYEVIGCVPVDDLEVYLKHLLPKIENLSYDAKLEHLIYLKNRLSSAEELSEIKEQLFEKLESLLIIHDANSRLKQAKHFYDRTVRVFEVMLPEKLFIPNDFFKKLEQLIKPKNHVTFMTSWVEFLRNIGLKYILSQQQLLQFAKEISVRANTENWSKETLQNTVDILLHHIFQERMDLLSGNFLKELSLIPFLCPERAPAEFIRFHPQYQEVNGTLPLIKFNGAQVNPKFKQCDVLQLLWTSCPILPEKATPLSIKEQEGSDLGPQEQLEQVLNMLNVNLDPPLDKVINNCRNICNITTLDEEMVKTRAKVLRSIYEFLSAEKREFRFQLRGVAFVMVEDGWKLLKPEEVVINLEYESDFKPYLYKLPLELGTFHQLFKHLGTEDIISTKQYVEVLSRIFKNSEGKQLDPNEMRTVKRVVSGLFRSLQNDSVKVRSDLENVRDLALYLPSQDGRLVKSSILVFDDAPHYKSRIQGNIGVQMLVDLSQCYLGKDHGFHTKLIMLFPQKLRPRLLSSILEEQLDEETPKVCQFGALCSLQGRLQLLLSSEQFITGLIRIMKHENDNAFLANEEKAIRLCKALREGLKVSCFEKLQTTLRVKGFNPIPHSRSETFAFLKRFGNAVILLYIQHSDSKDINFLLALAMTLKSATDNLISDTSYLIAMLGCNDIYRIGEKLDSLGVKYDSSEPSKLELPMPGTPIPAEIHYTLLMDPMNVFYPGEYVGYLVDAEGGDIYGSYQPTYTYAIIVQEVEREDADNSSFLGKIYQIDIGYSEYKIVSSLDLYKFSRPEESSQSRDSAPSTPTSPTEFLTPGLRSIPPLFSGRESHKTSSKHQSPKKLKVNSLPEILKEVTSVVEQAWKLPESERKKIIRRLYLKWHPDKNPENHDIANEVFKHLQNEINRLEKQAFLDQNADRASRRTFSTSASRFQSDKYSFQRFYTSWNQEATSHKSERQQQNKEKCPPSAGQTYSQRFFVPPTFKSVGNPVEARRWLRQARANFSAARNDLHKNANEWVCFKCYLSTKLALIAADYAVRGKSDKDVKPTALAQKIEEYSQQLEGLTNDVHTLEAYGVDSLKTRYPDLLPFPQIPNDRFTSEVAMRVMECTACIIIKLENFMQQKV
UniProt Q8N5L8: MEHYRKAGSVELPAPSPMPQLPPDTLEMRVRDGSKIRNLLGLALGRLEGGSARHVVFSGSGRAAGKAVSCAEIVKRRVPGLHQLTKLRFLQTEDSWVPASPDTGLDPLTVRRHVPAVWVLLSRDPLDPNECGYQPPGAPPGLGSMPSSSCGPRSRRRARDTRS
UniProt P04844, 77-109: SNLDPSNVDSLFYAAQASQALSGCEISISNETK
UniProt P19793, 246-274: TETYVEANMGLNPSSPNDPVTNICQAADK
UniProt O75116: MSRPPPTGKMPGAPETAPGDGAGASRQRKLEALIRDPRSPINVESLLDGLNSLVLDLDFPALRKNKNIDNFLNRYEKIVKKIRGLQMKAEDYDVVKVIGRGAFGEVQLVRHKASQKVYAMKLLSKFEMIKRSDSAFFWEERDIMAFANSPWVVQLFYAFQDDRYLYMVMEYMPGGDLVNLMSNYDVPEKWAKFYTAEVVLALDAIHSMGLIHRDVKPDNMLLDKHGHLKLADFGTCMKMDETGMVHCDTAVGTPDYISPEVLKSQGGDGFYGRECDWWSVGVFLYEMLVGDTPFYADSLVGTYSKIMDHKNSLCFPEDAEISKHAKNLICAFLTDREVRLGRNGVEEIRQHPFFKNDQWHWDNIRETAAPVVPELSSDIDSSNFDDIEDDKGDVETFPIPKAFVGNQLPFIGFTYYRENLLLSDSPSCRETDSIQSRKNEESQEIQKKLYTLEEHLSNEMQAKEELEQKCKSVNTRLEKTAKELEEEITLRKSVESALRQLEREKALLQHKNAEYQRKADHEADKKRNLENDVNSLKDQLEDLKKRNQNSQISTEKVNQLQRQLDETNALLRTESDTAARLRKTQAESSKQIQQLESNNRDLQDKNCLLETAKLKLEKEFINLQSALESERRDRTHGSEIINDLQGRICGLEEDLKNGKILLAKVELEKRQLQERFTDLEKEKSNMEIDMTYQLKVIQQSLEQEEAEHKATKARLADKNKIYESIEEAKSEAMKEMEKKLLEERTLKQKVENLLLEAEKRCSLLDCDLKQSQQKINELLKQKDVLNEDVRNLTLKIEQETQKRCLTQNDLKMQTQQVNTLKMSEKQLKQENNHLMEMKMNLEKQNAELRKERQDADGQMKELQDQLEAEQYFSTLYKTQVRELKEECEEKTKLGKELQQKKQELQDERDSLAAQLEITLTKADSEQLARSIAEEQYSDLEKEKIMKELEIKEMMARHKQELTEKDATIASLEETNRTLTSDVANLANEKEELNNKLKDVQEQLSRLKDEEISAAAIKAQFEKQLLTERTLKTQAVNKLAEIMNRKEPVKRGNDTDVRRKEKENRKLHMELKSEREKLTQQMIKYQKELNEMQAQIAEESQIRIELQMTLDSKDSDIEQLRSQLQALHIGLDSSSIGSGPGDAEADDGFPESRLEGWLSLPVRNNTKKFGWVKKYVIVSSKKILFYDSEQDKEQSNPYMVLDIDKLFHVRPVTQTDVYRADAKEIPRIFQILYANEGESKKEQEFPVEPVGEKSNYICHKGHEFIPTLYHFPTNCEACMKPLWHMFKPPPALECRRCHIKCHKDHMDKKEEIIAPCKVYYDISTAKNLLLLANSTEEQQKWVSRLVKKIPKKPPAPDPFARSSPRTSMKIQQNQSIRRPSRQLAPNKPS
UniProt P60602: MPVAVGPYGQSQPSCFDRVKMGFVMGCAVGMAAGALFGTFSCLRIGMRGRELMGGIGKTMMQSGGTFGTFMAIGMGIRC
UniProt Q9BZR6, 39-61: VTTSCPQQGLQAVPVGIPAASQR
UniProt Q9GZN7: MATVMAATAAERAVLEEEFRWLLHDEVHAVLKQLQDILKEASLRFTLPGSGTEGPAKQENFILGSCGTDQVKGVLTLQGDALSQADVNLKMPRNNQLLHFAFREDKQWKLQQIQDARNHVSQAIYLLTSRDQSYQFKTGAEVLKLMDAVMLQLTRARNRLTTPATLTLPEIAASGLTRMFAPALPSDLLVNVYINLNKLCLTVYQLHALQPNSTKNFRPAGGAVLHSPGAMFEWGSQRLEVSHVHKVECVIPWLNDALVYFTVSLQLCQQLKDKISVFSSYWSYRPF

Assays:
[1] = compound: ClCC(=O)N[C@@H]1CCCc2ccccc12; assay: log2 mean competition ratio of IA-DTB cysteine labelling (DMSO/compound) (log2 ratio); higher = stronger cysteine engagement by compound; details: treatment time: 4 h, cell line lysate: HEK293T
Method: (§1)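 IA-DTB competitive cysteine chemoproteomics in HEK293T RIPA lysate. Lysates were treated with compound 29 or 30 at 50 or 200 µM for 4 h, then IA-DTB (500 µM, 1 h), trypsin-digested, NeutrAvidin-enriched and analysed by diaPASEF. Competition ratio = intensity DMSO / intensity compound (n=4 treated, n=64 DMSO); binding: mean log2 CR ≥ 1 and p ≤ 0.05 plus QC filters. Target is the cysteine site.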

[2] = compound: ClCC(=O)N[C@H]1CCCc2ccccc12; assay: as above; details: treatment time: 4 h, cell line lysate: HEK293T
Method: as §1

| Target | log2 mean competition ratio ([1]; 50 µM) | log2 mean competition ratio ([1]; 200 µM) | log2 mean competition ratio ([2]; 200 µM) | log2 mean competition ratio ([2]; 50 µM) |
| --- | --- | --- | --- | --- |
| ROCK1 C1070 (UniProt Q13464) | -0.318 | -0.437 | – | – |
| ROCK1 C1300 (UniProt Q13464) | -0.369 | 0.25 | – | – |
| RPL36A;RPL36AL C88;(C88) | 0.344 | 0.00222 | – | – |
| RPS15A C30 (UniProt P62244) | -0.156 | -0.127 | – | – |
| SACS C4474 (UniProt Q9NZJ4) | -0.24 | 0.0688 | – | – |
| RPP25L C70 (UniProt Q8N5L8) | 0.312 | -0.246 | – | – |
| RPRD1B C100 (UniProt Q9NQG5) | -0.336 | 0.145 | – | – |
| RPAP2 C277 (UniProt Q8IXW5) | -0.213 | – | – | – |
| RNFT1 C90 (UniProt Q5M7Z0) | -0.295 | -0.133 | – | – |
| RRBP1 C1038 (UniProt Q9P2E9) | -0.0234 | 0.0223 | – | – |
| RO60 C71 (UniProt P10155) | -0.0384 | -0.363 | – | – |
| RNMT C73 (UniProt O43148) | -0.234 | 0.027 | – | – |
| RNF123 C1180 (UniProt Q5XPI4) | -0.169 | 0.0449 | – | – |
| RND2 C18 | -0.0682 | 0.606 | – | – |
| RPS6KA3 C229 (UniProt P51812) | 0.443 | 0.261 | – | – |
| RTCA C153 (UniProt O00442) | 0.0243 | 0.134 | – | – |
| RPN2 C100 (UniProt P04844) | 0.77 | 0.492 | – | – |
| RTN3 C390 (UniProt O95197) | -0.309 | -0.215 | – | – |
| RPL12 C141 (UniProt P30050) | -0.145 | -0.194 | – | – |
| RPP30 C225 | -0.031 | 0.0438 | – | – |
| ROR1 C575 | -0.0789 | -0.424 | – | – |
| RPS20 C70 (UniProt P60866) | 0.325 | -0.323 | – | – |
| SACS C1118 (UniProt Q9NZJ4) | -0.0856 | -0.0655 | – | – |
| RNF169 C28 (UniProt Q8NCN4) | -0.228 | 0.227 | – | – |
| RNF135 C270 | -0.216 | -3.72 | – | – |

Taken from above:
RO60 C71 (UniProt P10155) – log2 mean competition ratio ([1]; 200 µM): -0.363
RPRD1B C100 (UniProt Q9NQG5) – log2 mean competition ratio ([1]; 50 µM): -0.336

Later entries.

| Target | log2 mean competition ratio ([1]; 50 µM) | log2 mean competition ratio ([1]; 200 µM) | log2 mean competition ratio ([2]; 200 µM) | log2 mean competition ratio ([2]; 50 µM) |
| --- | --- | --- | --- | --- |
| RPE C217 (UniProt Q96AT9) | -0.138 | -0.189 | – | – |
| RNF10 C366 (UniProt Q8N5U6) | 0.169 | 0.176 | – | – |
| RTKN C341 (UniProt Q9BST9) | 0.243 | -0.171 | – | – |
| RNF113A C202 (UniProt O15541) | 0.11 | 0.29 | – | – |
| RPA1 C503 (UniProt P27694) | -0.173 | -0.233 | – | – |
| RUFY1 C107 (UniProt Q96T51) | 0.43 | 0.338 | – | – |
| RXRA C269 (UniProt P19793) | 0.199 | – | – | – |
| ROCK2 C804 (UniProt O75116) | -0.224 | -0.331 | – | – |
| RPS2 C229 (UniProt P15880) | 0.504 | -0.215 | – | – |
| ROMO1 C15 (UniProt P60602) | -0.116 | 0.738 | – | – |
| RPAP3 C155 (UniProt Q9H6T3) | -0.0222 | -0.258 | – | – |
| RPRD2 C1071 (UniProt Q5VT52) | -0.103 | -0.211 | – | – |
| ROCK2 C428 (UniProt O75116) | 0.177 | 0.295 | – | – |
| RNF26 C395 (UniProt Q9BY78) | 0.0244 | -0.379 | 0.247 | – |
| RTCB C485 (UniProt Q9Y3I0) | -0.334 | -0.238 | -0.25 | -0.302 |
| ROCK2 C1257 (UniProt O75116) | 0.0594 | -0.418 | – | – |
| RND3 C34 | -0.169 | 0.00973 | – | – |
| RPL18A C64 (UniProt Q02543) | 0.173 | -0.459 | – | – |
| RUFY1 C184 (UniProt Q96T51) | -0.08 | -0.0413 | – | – |
| RPL14 C42 (UniProt P50914) | 0.149 | -0.222 | -0.113 | 0.214 |
| RPL11 C150 (UniProt P62913) | 0.2 | 0.0511 | – | – |
| RRP12 C102 (UniProt Q5JTH9) | 0.237 | 0.145 | – | – |
| RNF169 C103 (UniProt Q8NCN4) | 0.084 | 0.0702 | – | – |
| RNF123 C977 (UniProt Q5XPI4) | -0.132 | -0.0524 | 0.0917 | -0.348 |
| RPS6KA1 C432 (UniProt Q15418) | 0.0545 | -0.108 | – | – |

| Target | log2 mean competition ratio ([1]; 50 µM) | log2 mean competition ratio ([1]; 200 µM) | log2 mean competition ratio ([2]; 200 µM) | log2 mean competition ratio ([2]; 50 µM) |
| --- | --- | --- | --- | --- |
| RNGTT C375 (UniProt O60942) | -0.304 | -0.115 | 0.289 | – |
| RNF31 C473 (UniProt Q96EP0) | -0.0795 | -0.245 | -0.259 | -0.117 |
| RTN4R C287 (UniProt Q9BZR6) | 0.125 | 0.0365 | – | – |
| RNF213 C3084 | 0.613 | 0.0473 | – | – |
| ROGDI C66 (UniProt Q9GZN7) | -0.367 | -0.0978 | – | – |
| SACS C3655 (UniProt Q9NZJ4) | 0.166 | -0.602 | – | – |
| RPS6KA5 C631 (UniProt O75582) | 0.0764 | 0.235 | – | – |
| RPS6KA2 C514 (UniProt Q15349) | -0.176 | -0.43 | -0.19 | – |
| RPS3 C134 | 0.239 | -0.73 | -0.301 | 0.793 |
| RPP30 C257 | 0.0614 | -0.0061 | – | – |
| RUFY3 C385 (UniProt Q7L099) | -0.0225 | -0.336 | – | – |
| RPRD2 C222 (UniProt Q5VT52) | -0.0466 | 0.0893 | – | – |
| RSAD1 C175 (UniProt Q9HA92) | 0.175 | 0.897 | – | – |
| RNF31 C572 (UniProt Q96EP0) | -0.104 | 0.149 | – | – |
| RSL1D1 C96 (UniProt O76021) | -0.181 | -0.0087 | – | – |
| RUSC2 C520 (UniProt Q8N2Y8) | 0.242 | 0.0833 | 0.756 | – |
| RNF213 C2497 | 0.408 | 0.052 | – | – |
| RNF213 C2536 | 0.103 | 0.342 | – | – |
| RPL23 C125 (UniProt P62829) | -0.0518 | -0.245 | -0.00306 | 0.107 |
| RRP12 C31 (UniProt Q5JTH9) | 0.206 | 0.662 | 0.529 | 0.316 |
| RNMT C225 (UniProt O43148) | -0.309 | -0.109 | – | – |
| RXRB C265 (UniProt P28702) | -0.0249 | -0.0104 | – | – |
| RTN4R C43 (UniProt Q9BZR6) | -0.092 | 0.118 | 0.0881 | 0.216 |
| RNASEL C301 (UniProt Q05823) | 0.175 | 0.0979 | 0.225 | – |
